According to PubChem BioAssay AID2013 (Sanford-Burnham Center for Chemical Genomics, 2009):
In all, about 290,000 compounds went through this assay and about 370 (0.13%) were called active. The shares of active, inactive and inconclusive entries below differ from those in the screen.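 How the source made its calls: active means spots per cell inhibited over 60%, with over 100 cells counted and total cytoplasm intensity under 500,000; inconclusive means wells with under 100 cells, flagged as likely toxic; inactive means the rest.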

By UniProt entry, the sequences of proteins in these tests, tags left out. Where a name states a change or a piece, a line headed by the entry shows the natural chain unless it says otherwise.
UniProt Q9Y2T6: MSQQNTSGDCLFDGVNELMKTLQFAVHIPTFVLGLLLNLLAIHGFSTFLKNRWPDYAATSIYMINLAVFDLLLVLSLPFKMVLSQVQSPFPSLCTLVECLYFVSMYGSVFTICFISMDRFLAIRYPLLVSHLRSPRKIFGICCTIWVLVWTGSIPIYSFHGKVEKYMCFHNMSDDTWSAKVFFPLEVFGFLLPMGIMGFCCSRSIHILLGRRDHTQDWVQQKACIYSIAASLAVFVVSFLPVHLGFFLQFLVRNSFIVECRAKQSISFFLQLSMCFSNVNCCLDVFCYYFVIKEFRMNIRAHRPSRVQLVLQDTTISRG

Molecular target: G-protein coupled receptor 55 (Homo sapiens) (UniProt Q9Y2T6)
Test: inhibition of LPI-stimulated GPR55 beta-arrestin translocation – imaging, U2OS, beta-arrestin-GFP, LPI agonist, primary screen (AID 2013);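 further: U2OS cells stably carrying GPR55 and arrestin-GFP stimulated by 5 µM LPI near EC80; imaged beta-arrestin-GFP aggregate spots per cell after agonist stimulation; plate controls were LPI-stimulated DMSO wells for no effect and DMSO wells without LPI for full effect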
Conditions: LPI antagonism, at 10 µM, active compounds read high

Row | Structure (SMILES) | inhibition
1 | CC1(C(=O)N(Cc2ccccc2)Cc2ccccc2)CC1(Br)Br (stereo not given) | active: 80.9%
2 | COc1ccc(CC(NC(C)=O)C(=O)NC2CCN(c3c(Cc4ccccc4)c(C)nc4ncnn34)CC2)cc1OC (stereo not given) | inconclusive: 103%
3 | Cc1cccc(OCCCCc2c(C)n[nH]c2C)c1C | inconclusive: 88.5%
4 | O=C(Nc1ccc(N2CCOCC2)cc1N1CCOCC1)c1ccc([N+](=O)[O-])cc1Cl | inconclusive: 80.9%
5 | CCN(Cc1cn2cccnc2n1)C1CCCCC1 | active: 87.7%
6 | O=C1CC(NC(=O)c2ccc(Cl)cc2)C(=O)N1 (stereo not given) | inactive: 8%
7 | CNC(=S)N(CCc1c(C)[nH]c2ccc(Cl)cc12)Cc1cccs1 | active: 79.7%
8 | CCOC(=O)C(C)(C)N(Cc1cccc(C)c1)S(=O)(=O)c1ccc(Cl)c([N+](=O)[O-])c1 | active: 73.8%
9 | CN(C)c1ccc(/C=C2\SC(=S)N(Nc3ncc(C(F)(F)F)cc3Cl)C2=O)cc1 | inconclusive: 93.5%
10 | CN(C)CCCN(C(=O)CCc1ccccc1)c1nc2ccc(Cl)cc2s1 | active: 75.6%
11 | Cc1ccc(C(=O)N/C(=C/c2ccco2)C(=O)NCc2ccco2)cc1 | inconclusive: -14.9%
12 | CN1C(=O)/C(=C\c2cc(N=Nc3ccccc3)ccc2O)SC1=S | inactive: 19.5%
13 | CC(C(=O)Nc1cccnc1)n1cc([N+](=O)[O-])cn1 (stereo not given) | inactive: 9.4%
14 | C=CCCc1ccc(C#N)c(SCc2c(C(=O)OCC)c3cc(OC(C)=O)c(Br)cc3n2C)n1 | inactive: -23.2%
15 | CC(=O)c1cc(-c2ccccc2)[nH]c1N1CCCC1 | inconclusive: 103%
16 | O=C(CCCn1c(=S)[nH]c2ccc(Br)cc2c1=O)N1CCN(c2ccccn2)CC1 | active: 60.6%
17 | CCN(CC)c1ccc(/C=C/C(=O)c2ccc(Br)cc2)cc1 | inconclusive: 98.4%
18 | COc1ccccc1C(c1nnnn1Cc1ccco1)N1CCN(c2cccc(C)c2C)CC1 (stereo not given) | inactive: 15.4%
19 | Cc1c(-c2ccccc2)nc2ccccc2c1C(=O)NCc1cccs1 | inconclusive: 103%
20 | COc1ccc(CCNC2=NCC(C)S2)cc1 (stereo not given) | inactive: 6.5%
21 | CCC(C)n1c(SCC(=O)NC(=O)c2cccn2C)nc2ccccc2c1=O (stereo not given) | active: 99.6%
22 | CN(C)S(=O)(=O)c1ccc(Cl)c(C(=O)NCCNC(=O)c2cc(S(=O)(=O)N(C)C)ccc2Cl)c1 | inconclusive: 103%

Row | Structure (SMILES) | inhibition
23 | CCOC(=O)C1C(C(=O)OCC)C1(c1ccccc1)c1ccccc1 (stereo not given) | active: 94.1%
24 | CCn1nc([N+](=O)[O-])c2c(-c3nc4ccccc4o3)c(N)n(CCCOC)c2c1=O | active: 98.4%
25 | CCOC(=O)CC1C(=O)NCCN1c1nc2c(C)cccn2c(=O)c1/C=C1\SC(=S)N(C(C)CC)C1=O (stereo not given) | inconclusive: 93.2%
26 | CCN1/C(=C/C=C/c2oc3ccc(-c4ccccc4)cc3[n+]2CC)Oc2ccc(-c3ccccc3)cc21 | inconclusive: 103%
27 | CN1CCN(C2=CC3=CC(=C(C#N)C#N)CCC3CC2)CC1 (stereo not given) | inconclusive: 55.4%
28 | COc1ccccc1OCC(=O)Nc1c2c(nn1-c1ccccc1)CS(=O)(=O)C2 | inconclusive: 65.8%
29 | COc1cc(NC(=O)CSCC(=O)Nc2cc(OC)cc(OC)c2)cc(OC)c1 | inactive: -13.3%
30 | CCN(CC)S(=O)(=O)c1cc(NC(=O)C(C)OC(=O)c2[nH]c(C)c(C(C)=O)c2C)ccc1C (stereo not given) | inconclusive: 96.6%
31 | CCC(CO)[n+]1c(C)cc(/C=C2\Sc3ccccc3N2Cc2ccccc2)cc1C (stereo not given) | inconclusive: 102%
32 | CCN(CC)c1ccc2c(Cl)c(Br)c(=O)oc2c1 | inconclusive: 82.9%
33 | C=CCn1c(CCc2ccccc2)nnc1SCC(N)=O | inactive: 1.8%
34 | CCCN1CC=C2C(C#N)=C(N)C(C#N)(C#N)C(c3cccc(OC)c3OC)C2C1 (stereo not given) | inconclusive: 79.2%
35 | Cc1cc(C)n2nc(SCC(=O)N3CCc4ccccc43)nc2n1 | inconclusive: 103%
36 | COc1ccc(CN=Cc2[nH]c3ccc(Br)c(Cl)c3c2O)cc1 | inconclusive: 77.9%
37 | CCN1CCN(C2=CC3=CC(=C(C#N)C#N)CCC3CC2)CC1 (stereo not given) | inconclusive: 62.1%
38 | CN(C)S(=O)(=O)c1cc(NC(=O)CNCc2ccccc2)ccc1Cl | inconclusive: 93.8%
39 | CC[n+]1c(/C=C2\Sc3ccccc3N2C)ccc2cccc(C)c21 | inconclusive: 103%
40 | O=C(O)CC(CC(=O)NCC(O)c1ccccc1)c1ccccc1 (stereo not given) | inconclusive: 103%
41 | CN(C)c1ccc(/C=C2\NC(=S)N(Cc3ccccc3)C2=O)cc1 | inconclusive: 92.9%
42 | Cc1ccc(C(=O)Nc2ccncc2)cc1S(=O)(=O)N1CCOCC1 | inconclusive: 87.5%
43 | COCCCNS(=O)(=O)c1ccc2c3c(cccc13)C(=O)S2 | inconclusive: 49.8%
44 | Nc1c(S(=O)(=O)O)cc(NC(=O)c2ccccc2)c2c1C(=O)c1ccccc1C2=O | inactive: 0.8%

Two entries picked at random from the list so far, as already listed:
Row | Structure (SMILES) | inhibition
24 | CCn1nc([N+](=O)[O-])c2c(-c3nc4ccccc4o3)c(N)n(CCCOC)c2c1=O | active: 98.4%
31 | CCC(CO)[n+]1c(C)cc(/C=C2\Sc3ccccc3N2Cc2ccccc2)cc1C (stereo not given) | inconclusive: 102%

(further entries)

Row | Structure (SMILES) | inhibition
45 | Cc1ccc(-c2nnc(N3CCOCC3)c3ccccc23)cc1S(=O)(=O)N(C)C | inconclusive: 103%
46 | O=S(=O)(Nc1cc2nc3ccccc3nc2n1Cc1ccccc1)c1ccc(Cl)cc1 | inconclusive: 83.8%
47 | CCCCNc1c2c3c(cccc3n(C)c1=O)C(=O)c1ccccc1-2 | inconclusive: 91.5%
48 | Cc1sc2nc(CSc3nc4ccccc4c(=O)n3CCCN3CCOCC3)[nH]c(=O)c2c1C | active: 89.7%
49 | N=c1c2c(ncn1Cc1ccco1)Oc1c(ccc3ccccc13)C2c1ccccc1 (stereo not given) | active: 65.9%
50 | CCN(CC)c1ccc2cc(-c3nc(-c4ccc(OC)cc4)cs3)c(=O)oc2c1 | inconclusive: 103%
51 | CC(=O)c1ccc(N2CCN(C(=O)C(=O)c3c(C)[nH]c4ccccc34)CC2)cc1 | inconclusive: 104%
52 | CCOc1cc(NC(=O)c2ccccn2)c(OCC)cc1NC(=O)c1ccccc1 | inconclusive: 104%
53 | O=C(NC12CC3CC(CC(C3)C1)C2)c1ccc(-c2ccc(Br)cc2)o1 | active: 63.8%
54 | CCOC(=O)N1CCN(C(=O)C(=O)c2cn(CC(=O)N3CCCCCC3)c3ccccc23)CC1 | inconclusive: 97.5%
55 | CCOC(=O)c1c(CSC(=N)N)n(-c2ccc(Br)cc2)c2cc(Br)c(OC(C)=O)cc12 | active: 89.3%
56 | Cc1sc(NC(=O)c2cc(-c3ccc(Cl)cc3)nc3ccccc23)c(C(N)=O)c1C | inactive: 28.7%
57 | COc1ccc(/C=C(\C#N)C(=O)OCC(=O)Nc2ccc(-c3nc4ccc(C)cc4s3)cc2)cc1 | inactive: -6.4%
58 | CC1CN(C(=O)C2CCCN2S(=O)(=O)c2ccc(Cl)cc2)CC(C)O1 (stereo not given) | inconclusive: 39.1%
59 | Oc1ccc(/C=N/Nc2nc(-c3cccnc3)nc3ccccc23)c(O)c1 | inactive: 1.9%
60 | Cc1nc(N2CCN(C)CC2)c2c3c(sc2n1)CCCC3 | inconclusive: -33.4%
61 | O=C1CCCC(O)=C1N=Nc1ccc2ncsc2c1 | inconclusive: 104%
62 | Cc1[nH]c2ccccc2c1/C=C/c1cc[n+](C)cc1 | inconclusive: 61.3%
63 | Fc1ccc(-c2n[nH]c(=S)c3ccccc23)cc1 | active: 98%
64 | COc1ccc(CCN2C(=O)c3[nH]nc(-c4ccccc4O)c3C2c2cccc(Cl)c2)cc1 (stereo not given) | inactive: 4.8%
65 | C=C(c1ccc(OC)cc1)c1ccc(OC)cc1 | inactive: -8%
66 | CC1CC(N(C(=O)c2ccc(Cl)cc2)c2ccccc2)c2ccccc2N1C(=O)c1ccco1 (stereo not given) | inactive: 10.9%

Molecules from the list above that have fluorine:
Row | Structure (SMILES) | inhibition
9 | CN(C)c1ccc(/C=C2\SC(=S)N(Nc3ncc(C(F)(F)F)cc3Cl)C2=O)cc1 | inconclusive: 93.5%
63 | Fc1ccc(-c2n[nH]c(=S)c3ccccc23)cc1 | active: 98%

(more compounds)

Row | Structure (SMILES) | inhibition
67 | O=C(Nc1ccc(C(O)(C(F)(F)F)C(F)(F)F)cc1)c1ccc(Cl)c([N+](=O)[O-])c1 | active: 88.6%
68 | CCC(C)N1C(=O)/C(=C/c2c(NCCCOC(C)C)nc3c(C)cccn3c2=O)SC1=S (stereo not given) | inconclusive: 42.2%
69 | N#C/C(=C/c1ccc(N2CCCCCC2)o1)c1ccc(Cl)cc1 | inconclusive: 51.9%
70 | CCN(CC)c1ccc(/C=C(\C#N)c2nc(-c3cccs3)c(NC(C)=O)s2)cc1 | inconclusive: 60.9%
71 | COc1cccc(NC(=O)CN(C)CC(=O)Nc2cccc(C(F)(F)F)c2)c1 | inactive: -8.3%
72 | COC(=O)c1c(NC(NC(=O)C(C)C)C(Cl)(Cl)Cl)sc2c1CCCC2 (stereo not given) | active: 76.3%
73 | CCC(=O)c1ccc(OCC(=O)OCC(=O)NC2CCCCCCC2)cc1 | inconclusive: 98.2%
74 | O=C(NC(=S)NCCC1=CCCCC1)c1ccccc1Br | active: 74.9%
75 | CC(C)C(OC(=O)c1cccs1)C(=O)NCCc1ccccc1 (stereo not given) | inconclusive: 37.3%
76 | CCOc1ccc(NS(=O)(=O)c2cc(C(=O)N3CCN(C(C)=O)CC3)ccc2Cl)cc1 | inconclusive: 94.8%
77 | CCCn1c2c(c(O)c(C(=O)Nc3ncccc3O)c1=O)CCCC2 | inactive: -10.6%
78 | CCN1/C(=C/c2ccc3cc(C)ccc3[n+]2CC)Sc2cc(C)c(C)cc21 | inconclusive: 104%
79 | COc1ccc(NC(C)=O)cc1NC(=O)CN1CCN(C2c3ccccc3-c3ccccc32)CC1 | active: 100%
80 | Cc1ccc(S(=O)(=O)N(C)C(=O)NC(=O)NS(=O)(=O)c2ccccc2)cc1 | inconclusive: 103%
81 | CC1OC(O[C@H]2CC[C@]3(C)C4C=C[C@]56OC[C@@]7(CC[C@@H](C)[C@H](C)C75)[C@H](O)C[C@@]6(C)[C@]4(C)CC[C@H]3C2(C)C)C(OC2OC(CO)C(O)C(O)C2OC2OCC(O)C(O)C2O)C(O)C1O (stereo not given in full) | inconclusive: 91.7%
82 | CC1=C(CC(=O)c2ccc(Cl)cc2)C(=O)c2ccccc2C1=O | inconclusive: -108%
83 | CC(NC(=O)C1CC2CCCC(C1)C2=O)c1ccccc1 (stereo not given) | inconclusive: 104%
84 | O=C(NC1CCCC1)C(c1ccccn1)N(C(=O)c1csnn1)c1ccccc1 (stereo not given) | inconclusive: 103%
85 | Cc1cc(C)c2nc(-c3ccccn3)cc(C(=O)NCc3cc(C)n(C)n3)c2c1 | inconclusive: 104%
